Test results from the supplement of paper PMC10849652.
This is one part of the list.

The chains behind the UniProt entries cited, without tags or fusion partners. Where a name states a change or a piece, a line headed by the entry shows the natural chain unless it says otherwise.
UniProt P09661: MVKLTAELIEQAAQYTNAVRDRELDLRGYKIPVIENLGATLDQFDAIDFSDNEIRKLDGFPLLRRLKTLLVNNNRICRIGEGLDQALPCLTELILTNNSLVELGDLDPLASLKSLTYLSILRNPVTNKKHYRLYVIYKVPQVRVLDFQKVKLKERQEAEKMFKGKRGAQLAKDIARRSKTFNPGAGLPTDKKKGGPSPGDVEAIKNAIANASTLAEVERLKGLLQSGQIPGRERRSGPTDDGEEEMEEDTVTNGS
UniProt P62314, whole entry, looked up: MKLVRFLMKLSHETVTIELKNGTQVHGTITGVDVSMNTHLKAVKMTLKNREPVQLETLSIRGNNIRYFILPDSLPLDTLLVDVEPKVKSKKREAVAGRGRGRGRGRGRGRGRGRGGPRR
UniProt Q96DI7: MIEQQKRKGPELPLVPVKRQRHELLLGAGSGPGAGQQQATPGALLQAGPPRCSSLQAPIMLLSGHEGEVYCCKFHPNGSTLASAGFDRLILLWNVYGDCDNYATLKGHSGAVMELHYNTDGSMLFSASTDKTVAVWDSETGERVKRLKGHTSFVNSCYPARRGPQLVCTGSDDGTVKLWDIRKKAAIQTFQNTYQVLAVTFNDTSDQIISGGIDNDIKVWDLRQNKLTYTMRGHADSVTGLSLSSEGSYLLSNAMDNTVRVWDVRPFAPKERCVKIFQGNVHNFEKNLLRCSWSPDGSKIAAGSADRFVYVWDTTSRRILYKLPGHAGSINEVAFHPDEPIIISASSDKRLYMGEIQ
UniProt Q9UMY4: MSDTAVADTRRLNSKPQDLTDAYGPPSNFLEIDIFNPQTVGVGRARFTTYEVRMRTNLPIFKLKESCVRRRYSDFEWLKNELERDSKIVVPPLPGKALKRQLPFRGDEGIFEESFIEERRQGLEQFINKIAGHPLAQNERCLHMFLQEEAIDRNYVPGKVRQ
UniProt Q9BX66: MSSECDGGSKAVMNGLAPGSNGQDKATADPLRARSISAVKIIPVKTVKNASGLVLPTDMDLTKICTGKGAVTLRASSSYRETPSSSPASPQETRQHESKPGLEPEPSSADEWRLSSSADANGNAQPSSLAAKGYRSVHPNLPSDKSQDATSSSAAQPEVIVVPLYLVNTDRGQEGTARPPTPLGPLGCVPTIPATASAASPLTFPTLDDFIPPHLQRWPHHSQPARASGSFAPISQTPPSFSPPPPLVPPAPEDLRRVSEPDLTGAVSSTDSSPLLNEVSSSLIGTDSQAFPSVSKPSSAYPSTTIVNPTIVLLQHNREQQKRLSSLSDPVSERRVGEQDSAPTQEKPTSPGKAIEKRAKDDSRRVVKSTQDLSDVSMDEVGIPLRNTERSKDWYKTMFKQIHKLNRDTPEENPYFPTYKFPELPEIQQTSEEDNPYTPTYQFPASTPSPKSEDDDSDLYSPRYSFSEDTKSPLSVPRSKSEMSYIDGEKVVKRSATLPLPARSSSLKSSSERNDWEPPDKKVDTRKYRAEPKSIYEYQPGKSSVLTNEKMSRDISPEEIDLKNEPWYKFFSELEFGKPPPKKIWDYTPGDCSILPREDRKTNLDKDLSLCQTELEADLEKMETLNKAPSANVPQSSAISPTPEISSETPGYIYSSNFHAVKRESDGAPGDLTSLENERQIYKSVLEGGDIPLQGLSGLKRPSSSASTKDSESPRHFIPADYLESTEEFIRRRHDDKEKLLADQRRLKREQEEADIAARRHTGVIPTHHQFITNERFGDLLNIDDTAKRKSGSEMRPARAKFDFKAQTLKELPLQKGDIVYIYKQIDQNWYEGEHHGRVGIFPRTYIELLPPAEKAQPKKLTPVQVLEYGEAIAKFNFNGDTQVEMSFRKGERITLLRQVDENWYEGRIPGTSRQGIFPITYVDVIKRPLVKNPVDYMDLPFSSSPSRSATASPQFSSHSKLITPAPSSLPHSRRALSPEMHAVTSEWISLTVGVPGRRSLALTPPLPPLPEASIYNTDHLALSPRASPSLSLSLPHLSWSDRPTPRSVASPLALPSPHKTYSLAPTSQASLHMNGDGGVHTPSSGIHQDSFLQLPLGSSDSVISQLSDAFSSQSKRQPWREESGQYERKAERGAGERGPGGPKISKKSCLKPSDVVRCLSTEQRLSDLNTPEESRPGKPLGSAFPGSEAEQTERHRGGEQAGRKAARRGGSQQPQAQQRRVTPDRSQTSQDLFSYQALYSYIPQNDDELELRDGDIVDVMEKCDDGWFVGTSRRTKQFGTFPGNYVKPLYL
UniProt Q96EX1: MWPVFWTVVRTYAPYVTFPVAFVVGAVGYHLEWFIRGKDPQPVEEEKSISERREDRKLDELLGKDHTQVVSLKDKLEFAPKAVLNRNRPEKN
UniProt Q8IYB5: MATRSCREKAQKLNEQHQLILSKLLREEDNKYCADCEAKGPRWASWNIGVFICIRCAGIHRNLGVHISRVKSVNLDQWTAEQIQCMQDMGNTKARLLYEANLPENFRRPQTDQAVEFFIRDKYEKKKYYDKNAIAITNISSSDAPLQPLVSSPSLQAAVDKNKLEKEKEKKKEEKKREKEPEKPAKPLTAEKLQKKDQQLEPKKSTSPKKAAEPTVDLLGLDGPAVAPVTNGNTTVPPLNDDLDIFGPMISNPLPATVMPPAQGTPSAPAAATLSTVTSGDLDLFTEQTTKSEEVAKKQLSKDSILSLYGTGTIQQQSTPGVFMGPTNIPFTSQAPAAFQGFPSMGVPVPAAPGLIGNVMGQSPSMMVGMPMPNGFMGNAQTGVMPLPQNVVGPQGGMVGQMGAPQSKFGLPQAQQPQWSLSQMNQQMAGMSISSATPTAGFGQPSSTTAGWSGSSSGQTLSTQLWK
UniProt O00193: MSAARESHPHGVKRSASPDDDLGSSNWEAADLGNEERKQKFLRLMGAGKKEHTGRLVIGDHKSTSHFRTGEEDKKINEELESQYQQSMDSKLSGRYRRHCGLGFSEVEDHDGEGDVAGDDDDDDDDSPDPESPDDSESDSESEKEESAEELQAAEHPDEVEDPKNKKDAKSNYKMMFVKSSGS
UniProt O15198: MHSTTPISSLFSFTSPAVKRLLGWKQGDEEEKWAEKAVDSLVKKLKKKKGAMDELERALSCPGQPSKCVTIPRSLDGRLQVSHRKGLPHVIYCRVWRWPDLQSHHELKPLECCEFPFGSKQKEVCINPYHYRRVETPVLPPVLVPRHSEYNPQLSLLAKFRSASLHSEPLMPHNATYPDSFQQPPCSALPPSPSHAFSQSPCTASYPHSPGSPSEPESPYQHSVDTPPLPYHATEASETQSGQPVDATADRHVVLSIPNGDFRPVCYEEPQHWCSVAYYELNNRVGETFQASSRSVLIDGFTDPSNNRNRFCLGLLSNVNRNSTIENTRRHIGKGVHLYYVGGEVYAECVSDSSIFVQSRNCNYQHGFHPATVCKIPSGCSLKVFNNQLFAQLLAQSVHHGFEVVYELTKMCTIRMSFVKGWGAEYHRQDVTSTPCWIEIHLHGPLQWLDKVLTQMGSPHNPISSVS
UniProt Q14683: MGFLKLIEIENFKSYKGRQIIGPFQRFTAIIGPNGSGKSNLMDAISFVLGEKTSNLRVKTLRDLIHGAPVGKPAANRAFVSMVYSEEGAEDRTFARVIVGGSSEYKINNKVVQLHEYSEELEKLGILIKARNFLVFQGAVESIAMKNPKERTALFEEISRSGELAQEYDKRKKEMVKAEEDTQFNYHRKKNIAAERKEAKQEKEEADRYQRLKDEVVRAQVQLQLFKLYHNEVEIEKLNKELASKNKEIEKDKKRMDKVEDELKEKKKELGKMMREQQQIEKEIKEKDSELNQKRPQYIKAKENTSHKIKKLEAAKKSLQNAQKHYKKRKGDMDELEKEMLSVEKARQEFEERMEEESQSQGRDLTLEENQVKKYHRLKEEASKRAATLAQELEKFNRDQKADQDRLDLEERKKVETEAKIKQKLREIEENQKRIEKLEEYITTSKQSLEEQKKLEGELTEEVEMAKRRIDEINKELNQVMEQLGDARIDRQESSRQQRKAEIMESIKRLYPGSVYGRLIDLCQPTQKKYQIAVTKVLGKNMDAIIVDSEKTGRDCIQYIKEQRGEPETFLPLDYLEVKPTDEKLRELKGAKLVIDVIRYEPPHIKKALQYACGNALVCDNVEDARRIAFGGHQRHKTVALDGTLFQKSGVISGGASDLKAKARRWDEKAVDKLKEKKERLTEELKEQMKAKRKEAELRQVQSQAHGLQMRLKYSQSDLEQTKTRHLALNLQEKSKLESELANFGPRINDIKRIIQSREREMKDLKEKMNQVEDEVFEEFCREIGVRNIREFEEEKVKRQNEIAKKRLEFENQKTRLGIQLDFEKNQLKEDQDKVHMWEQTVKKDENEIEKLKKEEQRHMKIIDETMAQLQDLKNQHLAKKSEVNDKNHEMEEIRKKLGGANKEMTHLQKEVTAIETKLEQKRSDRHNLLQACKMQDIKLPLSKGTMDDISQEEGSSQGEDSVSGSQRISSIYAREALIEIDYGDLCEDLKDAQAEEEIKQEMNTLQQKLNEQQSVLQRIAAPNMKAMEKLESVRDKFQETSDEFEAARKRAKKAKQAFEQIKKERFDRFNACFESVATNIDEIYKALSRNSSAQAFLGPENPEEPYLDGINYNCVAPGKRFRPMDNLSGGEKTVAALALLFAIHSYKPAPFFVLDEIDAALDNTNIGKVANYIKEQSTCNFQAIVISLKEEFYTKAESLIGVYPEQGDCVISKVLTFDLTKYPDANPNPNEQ
UniProt Q9Y5X1: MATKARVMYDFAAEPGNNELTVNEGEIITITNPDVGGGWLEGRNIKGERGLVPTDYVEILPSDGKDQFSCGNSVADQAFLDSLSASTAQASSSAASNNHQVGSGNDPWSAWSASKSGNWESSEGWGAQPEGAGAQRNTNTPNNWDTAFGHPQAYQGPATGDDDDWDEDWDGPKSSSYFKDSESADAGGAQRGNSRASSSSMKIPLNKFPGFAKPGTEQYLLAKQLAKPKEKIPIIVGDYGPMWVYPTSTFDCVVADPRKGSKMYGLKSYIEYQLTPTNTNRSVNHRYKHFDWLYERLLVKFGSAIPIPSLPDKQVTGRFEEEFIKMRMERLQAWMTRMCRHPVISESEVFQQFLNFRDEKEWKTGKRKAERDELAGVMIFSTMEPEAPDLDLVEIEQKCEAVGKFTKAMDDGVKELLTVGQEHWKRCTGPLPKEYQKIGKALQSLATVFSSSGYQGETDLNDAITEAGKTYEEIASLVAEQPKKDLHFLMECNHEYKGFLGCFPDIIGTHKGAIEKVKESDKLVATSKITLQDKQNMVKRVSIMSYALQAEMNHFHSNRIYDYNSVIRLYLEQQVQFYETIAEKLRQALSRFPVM
UniProt Q9UQE7: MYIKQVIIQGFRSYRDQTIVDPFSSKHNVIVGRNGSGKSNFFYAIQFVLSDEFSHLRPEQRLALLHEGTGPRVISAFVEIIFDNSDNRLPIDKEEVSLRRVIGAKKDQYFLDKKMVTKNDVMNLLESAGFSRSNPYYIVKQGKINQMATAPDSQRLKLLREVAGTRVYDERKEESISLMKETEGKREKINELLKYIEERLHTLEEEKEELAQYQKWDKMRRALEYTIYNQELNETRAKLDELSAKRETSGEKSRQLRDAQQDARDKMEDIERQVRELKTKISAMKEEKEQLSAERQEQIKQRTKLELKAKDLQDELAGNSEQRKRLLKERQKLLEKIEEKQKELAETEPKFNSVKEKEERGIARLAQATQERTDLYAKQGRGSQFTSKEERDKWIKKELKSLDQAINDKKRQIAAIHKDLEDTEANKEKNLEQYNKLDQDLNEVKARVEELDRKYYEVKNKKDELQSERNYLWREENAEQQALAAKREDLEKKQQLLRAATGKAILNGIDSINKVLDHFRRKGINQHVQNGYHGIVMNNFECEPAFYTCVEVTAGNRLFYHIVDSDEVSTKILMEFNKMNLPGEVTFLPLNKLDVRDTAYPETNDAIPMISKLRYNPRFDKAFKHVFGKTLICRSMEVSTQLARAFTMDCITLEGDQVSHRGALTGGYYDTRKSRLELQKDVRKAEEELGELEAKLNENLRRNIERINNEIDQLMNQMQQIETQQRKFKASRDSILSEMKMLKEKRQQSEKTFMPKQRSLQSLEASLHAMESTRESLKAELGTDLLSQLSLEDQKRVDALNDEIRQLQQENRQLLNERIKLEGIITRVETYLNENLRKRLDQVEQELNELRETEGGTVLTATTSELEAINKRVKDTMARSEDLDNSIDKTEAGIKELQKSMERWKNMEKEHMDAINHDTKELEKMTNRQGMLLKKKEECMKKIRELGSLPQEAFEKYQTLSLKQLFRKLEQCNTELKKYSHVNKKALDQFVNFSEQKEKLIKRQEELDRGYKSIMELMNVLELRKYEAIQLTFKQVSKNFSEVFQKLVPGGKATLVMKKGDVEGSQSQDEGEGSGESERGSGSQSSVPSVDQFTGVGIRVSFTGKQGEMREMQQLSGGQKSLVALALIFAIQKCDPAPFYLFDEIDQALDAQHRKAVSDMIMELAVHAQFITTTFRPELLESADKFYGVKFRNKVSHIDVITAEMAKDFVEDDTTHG
UniProt P62318, whole entry, looked up: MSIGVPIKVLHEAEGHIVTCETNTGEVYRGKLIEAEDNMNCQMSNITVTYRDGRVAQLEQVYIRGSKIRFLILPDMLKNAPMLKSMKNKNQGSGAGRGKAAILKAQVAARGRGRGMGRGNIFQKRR

Key:
Test in all cases: log2 fold change, soluble protein after heating vs DMSO (PISA); higher = thermal stabilisation; K562 cells, 10 uM, 30 min; active = over 0.2 and 3.5 SD of the protein, either way, in both replicates (recomputed)
[1] = compound: NC(=O)Nc1cc(-c2cccc(F)c2)sc1C(=O)N[C@H]1CCCNC1
Procedure, shortened: (§1)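 K562 cells at 2×10^6 cells/mL were treated with 10 μM compound for 30 min. Aliquots were heated for 3 min across 48°C-58°C, pooled, and extracted in PBS with 0.5% NP-40 at 4°C; soluble protein was the supernatant after 21,000xg for 90 min. Soluble protein was quantified by TMTpro 16plex LC-MS/MS with channel sums equalised, and reported as log2 fold change in thermal stability against DMSO controls, with values from duplicates.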

[2] = compound: NC(=O)c1cnc(N[C@@H]2CCCC[C@@H]2N)nc1Nc1cccc(-n2nccn2)c1
Procedure, shortened: as §1

[3] = compound: NC1(c2ccc(-c3nc4ccn5c(=O)[nH]nc5c4cc3-c3ccccc3)cc2)CCC1
Procedure, shortened: as §1

[4] = compound: NCC(=O)Nc1ccc(-n2nc(C(F)(F)F)cc2-c2ccc3c(ccc4ccccc43)c2)cc1
Procedure, shortened: as §1

entinostat = compound: Nc1ccccc1NC(=O)c1ccc(CNC(=O)OCc2cccnc2)cc1 [entinostat]
Procedure, shortened: as §1

vorinostat = compound: O=C(CCCCCCC(=O)Nc1ccccc1)NO [vorinostat]
Procedure, shortened: as §1

citarinostat = compound: O=C(CCCCCCNC(=O)c1cnc(N(c2ccccc2)c2ccccc2Cl)nc1)NO [citarinostat]
Procedure, shortened: as §1

silmitasertib = compound: O=C(O)c1ccc2c(c1)nc(Nc1cccc(Cl)c1)c1ccncc12 [silmitasertib]
Procedure, shortened: as §1

[5] = compound: O=C1NC(=O)C(c2cnc3ccccn23)=C1c1cn2c3c(cc(F)cc13)CN(C(=O)N1CCCCC1)CC2
Procedure, shortened: as §1

[6] = compound: c1cc(OCCN2CCCCC2)cc(-c2n[nH]c3ccc(-c4nnc[nH]4)cc23)c1
Procedure, shortened: as §1

| Target | log2 fold change [1] | log2 fold change [2] | log2 fold change [3] | log2 fold change [4] | log2 fold change (entinostat) | log2 fold change (vorinostat) | log2 fold change (citarinostat) | log2 fold change (silmitasertib) | log2 fold change [5] | log2 fold change [6] |
| --- | --- | --- | --- | --- | --- | --- | --- | --- | --- | --- |
| SNRPA1 (UniProt P09661) | inactive: 0.12 | inactive: 0.003 | inactive: 0.06 | inactive: 0.047 | inactive: 0.008 | inactive: -0.084 | inactive: -0.029 | inactive: 0.022 | inactive: 0.105 | inactive: -0.041 |
| SNAP91 (UniProt O60641) | inactive: -0.019 | inactive: 0.025 | inactive: -0.034 | inactive: 0.002 | inactive: 0.024 | inactive: 0.076 | inactive: 0.153 | inactive: 0.024 | inactive: -0.033 | inactive: 0.007 |
| SNAPIN (UniProt O95295) | inactive: -0.06 | inactive: -0.041 | inactive: -0.044 | inactive: 0.041 | inactive: -0.041 | inactive: -0.085 | inactive: 0.026 | inactive: -0.023 | inactive: -0.022 | inactive: -0.043 |
| SNUPN (UniProt O95149) | inactive: -0.031 | inactive: -0.06 | inactive: -0.095 | inactive: -0.063 | inactive: 0.06 | inactive: 0.027 | inactive: -0.082 | inactive: 0.027 | inactive: -0.077 | inactive: 0.071 |
| SNRPD1 (UniProt P62314) | inactive: -0.041 | inactive: -0.036 | inactive: 0.078 | inactive: -0.018 | inactive: -0.058 | inactive: -0.089 | inactive: -0.007 | inactive: 0.074 | inactive: -0.022 | inactive: -0.035 |
| SNRNP40 (UniProt Q96DI7) | inactive: 0.017 | inactive: -0.017 | inactive: 0.065 | inactive: -0.011 | inactive: -0.067 | inactive: -0.018 | inactive: -0.008 | inactive: 0.058 | inactive: 0.04 | inactive: -0.121 |
| SLMAP (UniProt Q14BN4) | inactive: 0.017 | inactive: -0.006 | inactive: 0.035 | inactive: -0.039 | inactive: 0.088 | inactive: 0.024 | inactive: -0.009 | inactive: 0.066 | inactive: 0.054 | inactive: -0.083 |
| SLIRP (UniProt Q9GZT3) | inactive: -0.121 | inactive: -0.106 | inactive: -0.041 | inactive: -0.062 | inactive: 0.127 | inactive: -0.055 | inactive: 0.023 | inactive: -0.016 | inactive: -0.129 | inactive: -0.129 |
| SNX12 isoform 1 (UniProt Q9UMY4) | inactive: -0.022 | active: -0.225 | active: -0.22 | inactive: 0.019 | inactive: 0.046 | inactive: 0.035 | inactive: 0.102 | inactive: 0.06 | inactive: -0.081 | inactive: -0.066 |
| SNRPB2 (UniProt P08579) | inactive: 0.047 | inactive: -0.012 | inactive: 0.03 | inactive: 0.038 | inactive: -0.016 | inactive: -0.027 | inactive: 0.023 | inactive: 0.051 | inactive: 0.046 | inactive: -0.034 |
| SORBS1 isoform 12 (UniProt Q9BX66) | inactive: 0.045 | inactive: -0.059 | inactive: -0.014 | inactive: -0.051 | inactive: -0.039 | inactive: -0.017 | inactive: 0.065 | inactive: -0.024 | inactive: -0.12 | inactive: 0.07 |
| SNRPG (UniProt P62308) | inactive: 0.043 | inactive: -0.034 | inactive: 0.069 | inactive: 0.049 | inactive: -0.032 | inactive: -0.071 | inactive: -0.062 | inactive: 0.072 | inactive: 0.082 | inactive: -0.037 |
| SMCHD1 (UniProt A6NHR9) | inactive: -0.085 | inactive: -0.352 | inactive: 0.159 | inactive: -0.423 | inactive: 0.08 | inactive: 0.19 | inactive: 0.085 | inactive: 0.095 | inactive: 0.206 | inactive: -0.176 |
| SMIM12 (UniProt Q96EX1) | inactive: 0.012 | inactive: 0.098 | inactive: 0.169 | inactive: -0.1 | inactive: 0.057 | inactive: -0.015 | inactive: 0.129 | inactive: -0.149 | inactive: -0.113 | inactive: 0.298 |
| SMARCAD1 isoform 2 (UniProt Q9H4L7) | inactive: -0.109 | inactive: -0.043 | inactive: -0.187 | inactive: -0.072 | inactive: 0.057 | inactive: 0.045 | inactive: 0.037 | inactive: 0.03 | inactive: -0.187 | inactive: 0.088 |
| SP100 isoform 4 (UniProt P23497) | inactive: 0.03 | inactive: -0.007 | inactive: -0.025 | inactive: -0.039 | inactive: 0.007 | inactive: -0.046 | inactive: -0.011 | inactive: 0.059 | inactive: -0.051 | inactive: 0.02 |
| SMAP1 isoform 2 (UniProt Q8IYB5) | inactive: 0.036 | inactive: -0.034 | inactive: 0.025 | inactive: 0.046 | inactive: 0.045 | inactive: 0.058 | inactive: 0.062 | inactive: 0.03 | inactive: 0.045 | inactive: 0.009 |
| SMC1B isoform 3 (UniProt Q8NDV3) | inactive: -0.033 | inactive: 0.173 | inactive: -0.081 | inactive: -0.02 | inactive: -0.003 | inactive: 0.048 | inactive: 0.026 | inactive: 0.136 | inactive: -0.051 | inactive: 0.056 |
| SLC9A6 isoform 2 (UniProt Q92581) | inactive: -0.021 | inactive: 0.016 | inactive: -0.091 | inactive: -0.02 | inactive: -0.017 | inactive: -0.078 | inactive: 0.025 | inactive: 0.027 | inactive: -0.021 | inactive: -0.073 |
| SMAP (UniProt O00193) | inactive: 0.007 | inactive: -0.021 | inactive: 0.12 | inactive: 0.013 | inactive: 0.016 | inactive: -0.047 | inactive: -0.029 | inactive: -0.033 | inactive: 0.006 | inactive: 0.02 |
| SMAD9 (UniProt O15198) | inactive: -0.114 | inactive: 0.001 | inactive: -0.069 | inactive: 0.05 | inactive: -0.076 | inactive: 0.006 | inactive: -0.017 | inactive: -0.055 | inactive: -0.111 | inactive: -0.029 |
| SMC1A (UniProt Q14683) | inactive: -0.012 | inactive: -0.032 | inactive: -0.01 | inactive: -0.056 | inactive: -0.009 | inactive: 0.1 | inactive: 0.06 | inactive: -0.013 | inactive: -0.017 | inactive: -0.089 |
| SNU13, A0A3B3IUA2 | inactive: -0.005 | inactive: -0.187 | inactive: -0.018 | inactive: -0.2 | inactive: -0.063 | inactive: -0.028 | inactive: -0.063 | inactive: 0.01 | inactive: -0.055 | inactive: -0.017 |
| SNX9 (UniProt Q9Y5X1) | inactive: -0.013 | inactive: -0.022 | inactive: -0.102 | inactive: -0.055 | inactive: 0.037 | inactive: 0.058 | inactive: 0.024 | inactive: 0.033 | inactive: -0.065 | inactive: -0.067 |
| SNAP29 (UniProt O95721) | inactive: 0.022 | inactive: -0.01 | inactive: -0.015 | inactive: 0.017 | inactive: -0.014 | inactive: -0.05 | inactive: 0.025 | inactive: -0.027 | inactive: 0.025 | inactive: -0.015 |
| SPAG5 (UniProt Q96R06) | inactive: 0.056 | inactive: -0.326 | inactive: 0.035 | inactive: -0.072 | inactive: 0.087 | inactive: 0.017 | inactive: 0.022 | inactive: 0.171 | inactive: 0.172 | inactive: -0.091 |
| SMC3 (UniProt Q9UQE7) | inactive: -0.02 | inactive: -0.061 | inactive: -0.011 | inactive: -0.043 | inactive: 0.007 | inactive: 0.088 | inactive: 0.05 | inactive: -0.012 | inactive: -0.011 | inactive: -0.087 |
| SNRPD3 (UniProt P62318) | inactive: 0.034 | inactive: -0.01 | inactive: 0.025 | inactive: 0.013 | inactive: -0.059 | inactive: -0.067 | inactive: -0.019 | inactive: 0.092 | active: 0.271 | inactive: -0.055 |
| SNW1 (UniProt Q13573) | inactive: 0.034 | inactive: 0.019 | inactive: 0.017 | inactive: 0.02 | inactive: -0.056 | inactive: -0.044 | inactive: -0.019 | inactive: 0.062 | inactive: 0.05 | inactive: -0.05 |
| SMARCC2 (UniProt Q8TAQ2) | inactive: 0.085 | inactive: -0.212 | inactive: -0.05 | inactive: -0.092 | inactive: 0.137 | inactive: 0.103 | inactive: 0.087 | inactive: 0.026 | inactive: -0.065 | inactive: -0.033 |

Quoted from the listing:
SMAD9 (UniProt O15198) – log2 fold change (vorinostat): inactive: 0.006
SLIRP (UniProt Q9GZT3) – log2 fold change (citarinostat): inactive: 0.023
